{
  "source": "patent US20220380471A1",
  "key": {"[1]": {"target": "T1, B7H3 (CD276) on human B7H3-positive tumor cell lines (human) (UniProt Q5ZPR3)", "T1 sequence (looked up)": "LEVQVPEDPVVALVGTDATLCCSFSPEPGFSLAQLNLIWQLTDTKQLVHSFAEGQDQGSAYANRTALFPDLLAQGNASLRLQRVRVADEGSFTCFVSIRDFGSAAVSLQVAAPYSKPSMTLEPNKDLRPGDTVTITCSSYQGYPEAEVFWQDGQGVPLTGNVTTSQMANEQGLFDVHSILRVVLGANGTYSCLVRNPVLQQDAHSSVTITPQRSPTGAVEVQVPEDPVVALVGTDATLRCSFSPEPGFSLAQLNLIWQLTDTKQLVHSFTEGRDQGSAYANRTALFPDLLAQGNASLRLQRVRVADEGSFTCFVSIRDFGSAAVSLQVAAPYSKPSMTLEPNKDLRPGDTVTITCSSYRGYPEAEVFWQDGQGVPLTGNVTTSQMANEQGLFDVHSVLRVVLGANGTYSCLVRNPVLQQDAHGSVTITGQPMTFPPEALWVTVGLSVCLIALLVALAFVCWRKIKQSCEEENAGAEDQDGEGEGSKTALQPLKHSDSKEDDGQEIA", "assay": "flow cytometry, 10 ug/mL antibody, APC anti-FLAG; IMR32, A431 and (untitled panel) NBEB cells, IMR32-B7-H3 KO as control"}, "[2]": {"target": "T1, B7H3 (CD276) on human B7H3-positive tumor cell lines (human)", "assay": "flow cytometry on IMR32, A431 and NBEB cells, 10 ug/mL"}, "[3]": {"target": "T2, B7H3-hFc (human) (UniProt Q5ZPR3)", "T2 sequence": "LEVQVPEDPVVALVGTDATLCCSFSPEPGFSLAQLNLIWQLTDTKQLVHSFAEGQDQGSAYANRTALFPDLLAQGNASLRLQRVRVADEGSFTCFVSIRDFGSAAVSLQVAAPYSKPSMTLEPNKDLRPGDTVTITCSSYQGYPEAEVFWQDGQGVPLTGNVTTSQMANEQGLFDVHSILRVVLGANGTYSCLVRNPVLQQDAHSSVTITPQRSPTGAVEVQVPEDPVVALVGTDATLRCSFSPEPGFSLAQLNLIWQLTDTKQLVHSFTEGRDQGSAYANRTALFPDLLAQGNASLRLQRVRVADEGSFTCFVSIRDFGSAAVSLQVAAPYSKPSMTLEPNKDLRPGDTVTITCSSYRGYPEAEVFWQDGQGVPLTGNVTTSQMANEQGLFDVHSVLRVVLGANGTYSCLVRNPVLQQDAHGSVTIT", "assay": "ELISA on coated B7H3-hFc, detection with HRP anti-FLAG M2"}, "[4]": {"target": "T2, B7H3-hFc (human)", "assay": "ELISA (summary of Example 2)"}, "[5]": {"target": "T2, B7H3-hFc (human)", "assay": "monoclonal phage ELISA on B7H3-hFc with IAB-hFc as tag control"}, "[6]": {"target": "T1, B7H3 (CD276) on human B7H3-positive tumor cell lines (human)", "assay": "flow cytometry (summary of Example 2)"}, "[7]": {"target": "T1, B7H3 (CD276) on human B7H3-positive tumor cell lines (human)", "assay": "flow cytometry, 10 ug/mL antibody, APC anti-FLAG; IMR32, A431 and NBEB cells, IMR32-B7-H3 KO as control"}, "[8]": {"target": "T3, hB7H3-His (human) (UniProt Q5ZPR3)", "T3 sequence (looked up)": "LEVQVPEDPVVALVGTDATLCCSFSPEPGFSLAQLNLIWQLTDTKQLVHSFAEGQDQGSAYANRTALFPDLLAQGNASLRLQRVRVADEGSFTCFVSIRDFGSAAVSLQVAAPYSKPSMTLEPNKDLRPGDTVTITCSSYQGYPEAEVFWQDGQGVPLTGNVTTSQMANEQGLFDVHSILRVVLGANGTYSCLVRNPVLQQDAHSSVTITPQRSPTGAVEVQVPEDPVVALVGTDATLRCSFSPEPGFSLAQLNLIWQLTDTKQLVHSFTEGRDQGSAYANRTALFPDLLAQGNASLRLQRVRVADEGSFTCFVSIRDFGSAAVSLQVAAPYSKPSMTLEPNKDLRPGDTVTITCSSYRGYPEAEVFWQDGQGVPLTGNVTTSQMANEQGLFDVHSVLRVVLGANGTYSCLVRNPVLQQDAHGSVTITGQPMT", "assay": "ELISA, purified VHH"}, "[9]": {"target": "T4, mouse B7H3-His (mouse) (UniProt Q8VE98)", "T4 sequence (looked up)": "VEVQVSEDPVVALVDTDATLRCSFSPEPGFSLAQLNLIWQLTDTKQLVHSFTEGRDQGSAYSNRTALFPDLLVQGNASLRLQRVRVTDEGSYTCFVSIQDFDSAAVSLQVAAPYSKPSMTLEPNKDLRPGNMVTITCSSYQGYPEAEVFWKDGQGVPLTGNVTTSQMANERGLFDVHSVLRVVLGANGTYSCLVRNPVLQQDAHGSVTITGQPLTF", "assay": "ELISA, purified VHH"}},
  "note": "Results are given in words; binding and its absence hold for the method and conditions named. Some binding calls cover weakened binding; strength is not graded here. For part of these data: Sequences can lack the tags named with a protein.",
  "data": [
    {"binder": "RFB1 (protein, not shown: small tags and cut ends) VH: QEQLKESGGRLVTPGTPLTLTCTVSGFSPNNYGVSWVRQPPGKGLEWIGMSSTAGATYYANWAKGRFTISKTSTTVDLEITSPTTEDTATYFCAKGTPSLSYGNIWGPGTLVTVSSGGGGSGGGGSGGGGSAQGPTQTPGGGGSGTEVVVK", "values": [
      {"measurement": "binding", "setting": "[1]", "result": "binds"},
      {"measurement": "binding", "setting": "[2]", "result": "binds"},
      {"measurement": "binding", "setting": "[3]", "result": "binds"},
      {"measurement": "binding", "setting": "[4]", "result": "binds"},
      {"measurement": "binding", "setting": "[5]", "result": "binds"},
      {"measurement": "binding", "setting": "[6]", "result": "binds"}
    ]},
    {"binder": "RFA1 (protein, not shown: small tags and cut ends) VH: QSLEESGGGLVTPGGTLTLTCTVSGFSLSSYGMSWVRQAPGKGLEWIGSMANNGDPYYASWAKGRFTISKTSTTVDLKITSPTTEDTATYFCVRAPWGSHSMWGPGTLVTVSSGGGGSGGGGSGGGGSDPVLTQTAGGGTNVEIK", "values": [
      {"measurement": "binding", "setting": "[2]", "result": "binds"},
      {"measurement": "binding", "setting": "[3]", "result": "binds"},
      {"measurement": "binding", "setting": "[4]", "result": "binds"},
      {"measurement": "binding", "setting": "[7]", "result": "binds"},
      {"measurement": "binding", "setting": "[5]", "result": "binds"},
      {"measurement": "binding", "setting": "[6]", "result": "binds"}
    ]},
    {"binder": "RWH1 (VHH) VHH: AVQLVESGGGSVQAGGSLRLSCAASGMNLDNYVRGWLRQAPGSKCEFVSIIRRDGTTDYGDSVKGRFTISRDNAKNTVYLQMNSLKPDDTAVYYCAAIVVPRAAEYACDGLPYRGQGTQVTVSS", "values": [
      {"measurement": "binding", "setting": "[8]", "result": "binds"}
    ]},
    {"binder": "RWG8 (VHH) VHH: DVQLVESGGGLVQPGGSLRLSCAASGFTFSRYWMGWFRQAPGKGVEWVSTINSGGGSTYYADSVKGRFTISRDNAKNTLYLQLNNLKTEDTAMYYCAKEQWRTGSRGQGTQVTVSS", "values": [
      {"measurement": "binding", "setting": "[9]", "result": "binds"},
      {"measurement": "binding", "setting": "[8]", "result": "binds"}
    ]},
    {"binder": "RWB12 (VHH) VHH: QVQLVESGGGSVQVGGSLRLSCAASGFTYNSYSVGWFRQAPGKEREGVAAINSGGSSTYYAASVKGRFTISRDNAKNTVYLQMNSLKPEDTAMYYCAARSPSPLTFQTRTLREDSYNYWGQGTQVTVSS", "values": [
      {"measurement": "binding", "setting": "[8]", "result": "binds"}
    ]},
    {"binder": "RWC4 (VHH) VHH: EVQLVESGGGSVQAGGSLRLSCVASEDSTSAMCMGWFRQAPGKEREGVACINPTGEVTWYGDSVKGRFTISRDTVKKIVYLQMNSLKPEDTAMYYCAARVTYGGDWSTDTDYEYWGQGTQVTVSS", "values": [
      {"measurement": "binding", "setting": "[8]", "result": "binds"}
    ]},
    {"binder": "RWG4 (VHH) VHH: QVQLVQSGGGLVQPGGSLRLSCAASGFTFSVYWFYWVRQAPRQGLEWVSTIASNGSTYYSDSVKGRFTISRDNAKNTVYLQMNSLKPEDTAVYYCVSDPDYYSDYERAYKFWAQGTQVTVSS", "values": [
      {"measurement": "binding", "setting": "[8]", "result": "binds"}
    ]}
  ]
}
